# In PubChem BioAssay AID2417 (National Center for Advancing Translational Sciences (NCATS), 2010):
# Among all 140,000 compounds or so, about 4,300 (3.1%) were called active. The inconclusive results got no clear call from the source; some entries with a clear call stand among them for comparison.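 Rule for the calls: active = readout at or below -70, meaning at least 70% loss of cells showing the perinucleolar compartment, a nuclear body marking cancer cells; inconclusive = readout between -30 and a set limit; inactive = the rest.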
# Assay: High Content Assay for Compounds that inhibit the Assembly of the Perinucleolar Compartment;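 note: plate controls were DMSO wells for no effect and camptothecin positive control wells for full effect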
# Conditions: PC3M PTB-GFP, PNC prevalence imaging, 16 h; at 10 µM; stronger effect = lower value
# In short: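 Read-out is percentage of cells bearing a perinucleolar compartment, from automated 20x imaging of fixed, Hoechst-stained PC3M PTB-GFP cells. Cells were seeded 4 h, then exposed 16 h to compound (23 nl of library stock) in duplicate plates.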
row,Compound,"activity change (PNC), negative = inhibition"
1,c1ccc(-c2nc(CSc3nnc(-c4cccs4)o3)cs2)cc1,inconclusive: -54.6%
2,COC(=O)c1cc2oc(C)cc2n1CC(=O)Nc1ccc(C)c(C)c1,inconclusive: -43.1%
3,Cc1ccc(-n2cc(C(C)(C)C)[nH]c2=S)cc1,inactive: 30.4%
4,COC(=O)C1=NN(c2ccc(Cl)cc2)C2C(=O)N(c3ccccc3OC)C(=O)C12 (stereo unspecified),inconclusive: -31.1%
5,COc1ccc(/C=N/N2C(=O)c3ccccc3C2=O)cc1,inconclusive: -44.9%
6,CCOc1ccc(CN(CCO)CCO)cc1C(=O)OC,inconclusive: -46%
7,CC1SCCN1S(=O)(=O)c1ccc2ccccc2c1 (stereo unspecified),inconclusive: -65.6%
8,COc1ccc(N(C(=O)CCl)C(C(=O)NC2CCCCC2)c2cccnc2)cc1 (stereo unspecified),inactive: -8.39%
9,CC(=O)c1cc(F)c(N2CCN(c3ccc([N+](=O)[O-])cc3F)CC2)cc1C,inconclusive: -65.1%
10,CSc1ncccc1C(=O)OCC(=O)N(C)C1CCS(=O)(=O)C1 (stereo unspecified),inconclusive: -68.9%
11,Nc1nonc1-n1nnc(C(=O)N/N=C/c2ccc(Br)cc2)c1CSC1=NCCS1,inconclusive: -40.3%
12,O=C(N/N=C\c1cccc(Cl)c1)c1ccc(Cn2cccn2)o1,inconclusive: -41.3%
13,Cc1occc1C(=O)NCCc1cccc(Cl)c1,inconclusive: -36.4%
14,Cc1ccc(NC(=S)NC2CCCC2)cc1C,inconclusive: -40%
15,Cc1cccc(COCC(Cc2ccccc2)N2CCN(C(=O)c3ccc(Cl)c(Cl)c3)CCC2=O)c1 (stereo unspecified),inactive: 33.6%
16,CCCC(NC(=O)c1ccco1)c1nc2ccccc2[nH]1 (stereo unspecified),inactive: 16.4%
17,C=CCOc1ccc(/C(O)=C2\C(=O)C(=O)N(CCCOC)C2c2ccc(O)c(OC)c2)cc1 (stereo unspecified),inconclusive: -41.3%
18,COc1ccc(CNC(=O)Cn2cc3c(n2)CCCCC3)cc1,inconclusive: -39.7%
19,COC(=O)c1sc2ccccc2c1NC(=O)c1ccc(S(=O)(=O)N2CCCCC2)cc1,inactive: 6.64%
20,Cc1ccc(C(=O)CSc2nc3cccnc3n2C)cc1,inconclusive: -50.8%
21,CCn1c(SCC(=O)c2ccc(Br)cc2)nnc1C(C)NC(=O)Cc1ccc(OC)cc1 (stereo unspecified),inactive: 14.5%
22,CC(C)c1ccc(C2NC(C(=O)O)CS2)cc1 (stereo unspecified),inactive: 36.3%
23,O=c1c(C(c2ccccc2)c2c(O)sc3ccccc3c2=O)c(O)sc2ccccc12,inconclusive: -49.2%

row,Compound,"activity change (PNC), negative = inhibition"
1,CCCCS(=O)CC(COc1ccc(Cl)cc1)OC(=O)c1ccccc1 (stereo unspecified),active: -119%
2,Cc1ccc(NC(=O)C2CC(=O)N(Cc3ccccc3)C2)cc1S(=O)(=O)N1CCCCCC1 (stereo unspecified),inconclusive: -47.3%
3,Cc1ccccc1NC(=O)CC1(c2ccc(N(C)C)cc2)C(=O)c2ccccc2C1=O,active: -90.2%
4,Cc1cc(N2C(=O)C(O)=C(C(=O)c3ccco3)C2c2cccnc2)no1 (stereo unspecified),inconclusive: -56.8%
5,NNC(=O)CC12CC3CC(C1)CC(n1ncnn1)(C3)C2,inactive: 5.79%
6,COc1cc(CNc2nc(C)c([N+](=O)[O-])c(C)c2C#N)cc(OC)c1OC,inconclusive: -47.4%
7,CN(C)S(=O)(=O)c1ccc2c(c1)nc(CCC(=O)NCC1CCCCC1)n2C,inactive: -2.88%
8,O=C(/C=C/c1cccc([N+](=O)[O-])c1)NCCSCc1c(Cl)cccc1Cl,inconclusive: -68.6%
9,CCOC(=O)c1cnc(SCC(=O)N2CCN(c3ccccc3)CC2)nc1N,inconclusive: -34.5%
10,CCCCC(=O)N1CCN(c2ccc(OC)cc2[N+](=O)[O-])CC1,inactive: -10.6%
11,CC1(C)CC(=O)c2sc(NC(=O)CN3C(=O)CCC3=O)nc2C1,inactive: 18.4%
12,CC1=C(C(=O)OC2CCCCC2)C(c2ccco2)C2=C(CC(C)(C)CC2=O)N1 (stereo unspecified),inconclusive: -51.2%
13,O=C(NC1CCCC1)C(c1ccsc1)N(C(=O)Cc1cccs1)c1ccccc1 (stereo unspecified),inconclusive: -73.4%
14,O=C(Nc1ccc(Cl)cn1)c1cc2ccccc2o1,inconclusive: -69.2%
15,O=C1c2ccccc2NC(c2ccc(-c3cccc([N+](=O)[O-])c3)o2)N1O (stereo unspecified),inconclusive: -74.4%
16,CCCCNc1nc(CC)c2c(c1C#N)CCCC2,inconclusive: -70.7%
17,CCOC(=O)CNc1ccc2c(c1)OCO2,inactive: 12%
18,CN(CC(=O)N1CCCc2c1c(=O)oc1ccc(O)cc21)Cc1ccccc1,inconclusive: -37.7%
19,CCN1C(=O)C(CC(=O)NC2CCCCC2)N(CC)C1=O (stereo unspecified),inconclusive: -69.5%
20,Cn1c(-c2ccc(Br)cc2)cnc1NCc1cccnc1,inactive: 35.3%
21,N#CC1=C(Nc2ccc(Br)cc2)CCC1,inconclusive: -42.5%
22,Cc1cccc(NC(=O)COC(=O)c2ccccc2-c2nc3ccccc3s2)c1C,inconclusive: -40.1%
23,CC(=O)OC(C(=O)Nc1ccccc1)C(C)S(=O)(=O)c1ccccc1 (stereo unspecified),inconclusive: -50.3%

row,Compound,"activity change (PNC), negative = inhibition"
1,COc1ccc(CSCC(=O)N/N=C/c2ccccc2OCc2ccccc2)cc1,inconclusive: -50.5%
2,CC(=O)N1CCc2cc(S(=O)(=O)NC(CC(C)C)C(=O)N3CCn4c3nc3ccccc34)ccc21 (stereo unspecified),inconclusive: -57.6%
3,Cc1cc(Cl)ccc1NC(=S)NCc1cccs1,inconclusive: -31.9%
4,O=C(c1sc2ccccc2c1Cl)N1CCN(c2ncccn2)CC1,inactive: 15.6%
5,COc1c(Br)cc2c(C)c(C(=O)O)oc2c1Br,inactive: 25.1%
6,Cn1c(O)c(C=NC(CC(N)=O)C(=O)O)c(=O)n(C)c1=O (stereo unspecified),inconclusive: -51.6%
7,O=C(Oc1ccc2ccccc2c1Cl)N1CCCCCC1,inactive: 36.7%
8,Cc1ccc2c(c1)CCCN2C(=O)C1CCCO1 (stereo unspecified),inconclusive: -56.8%
9,Cc1ccc(-n2c(C)cn(C(=O)c3ccccc3)c2=S)cc1,inconclusive: -36.5%
10,COc1cccc(CN2CCC(N(CCc3ccccc3)Cc3ccccc3)CC2)c1OC,inactive: 11.5%
11,NS(=O)(=O)c1ccc(NC=C2C(=O)OC3(CCCCC3)OC2=O)cc1,inactive: -22.8%
12,OCCNc1nc2ccc(Cl)cc2[nH]1,inconclusive: -48.3%
13,Cc1ccc(C(C)C)c(OCc2nnc(SCC(=O)Nc3nccs3)n2C)c1,inconclusive: -33.3%
14,O=C(OCn1nnc2ccccc2c1=O)C1CCN(S(=O)(=O)c2cccs2)CC1,active: -100%
15,COCCn1c(SCC(=O)Nc2sc(C)c(C)c2C#N)nnc1-c1ccc(OC)cc1,inactive: 25.6%
16,CCN1C(=O)c2n[nH]c(C(=O)OC)c2C1=O,inconclusive: -58.9%
17,NC(=O)c1ccc(-n2nc(C(F)(F)F)c3c2CCCC3)cc1,inconclusive: -35.6%
18,COc1ccc(OC)c(NC(=O)CCN2CCCCC2)c1,inconclusive: -47.5%
19,O=C(c1ccccc1)C(Sc1ncn[nH]1)c1ccccc1 (stereo unspecified),inactive: 2.49%
20,CCCCCOC(=O)Cc1c(O)c2ccccc2[nH]c1=O,inconclusive: -41.6%
21,CC(C)(C)c1[nH]nc2c1C(c1cccnc1)C(C#N)=C(N)O2 (stereo unspecified),inconclusive: -41.6%
22,Cn1c(=O)oc2cc(S(=O)(=O)N3CCN(c4cccc(Cl)c4)CC3)ccc21,inconclusive: -36.6%
23,Cc1ccc2nc(/C(C#N)=C\c3ccc(N4CCOCC4)o3)[nH]c2c1,inactive: 16.7%

# Among those listed so far, 3 have a COOH group:
row,Compound,"activity change (PNC), negative = inhibition"
22,CC(C)c1ccc(C2NC(C(=O)O)CS2)cc1 (stereo unspecified),inactive: 36.3%
5,COc1c(Br)cc2c(C)c(C(=O)O)oc2c1Br,inactive: 25.1%
6,Cn1c(O)c(C=NC(CC(N)=O)C(=O)O)c(=O)n(C)c1=O (stereo unspecified),inconclusive: -51.6%

# Continued:

row,Compound,"activity change (PNC), negative = inhibition"
1,Cc1ccc(S(=O)(=O)NNc2nc3ccccc3nc2C(F)(F)F)cc1,inactive: -7.07%
2,Cc1ccc(-n2c(C)cc(C)c(C#N)c2=O)cc1Cl,inconclusive: -30%
3,Oc1ccccc1-c1n[nH]c(=S)n1Cc1ccco1,inconclusive: -33.1%
4,COc1cccc(NS(=O)(=O)CC23CCC(CC2=O)C3(C)C)c1 (stereo unspecified),inconclusive: -40.2%
5,COc1ccc(Cl)cc1NC(=O)C(C)N(C)Cc1cccc(Cl)c1Cl (stereo unspecified),active: -101%
6,O=C(NCC1CCCO1)C1CCC(=O)N1CCc1ccccc1 (stereo unspecified),active: -102%
7,Nc1nc(C(=O)N2CCOCC2)nn1C(=O)c1ccc(Cl)cc1,inconclusive: -34.1%
8,COc1cc(CCC(=O)Nc2cccc(S(=O)(=O)N(C)C)c2)cc(OC)c1OC,inactive: -0.175%
9,Cc1ccc2c(Cl)cc(Cl)c(OCC(=O)Nc3ccc(C)c(S(=O)(=O)N(C)C)c3)c2n1,inconclusive: -55.6%
10,CC(C)(C)c1cc(CN(CCO)CCO)cc(C(C)(C)C)c1O,inconclusive: -36.8%
11,Nc1nc(SCc2ccccc2Cl)ns1,inconclusive: -42.3%
12,COc1ccc(/C=C2/CC/C(=C\c3ccc(OC)c(OC)c3OC)C2=O)c(OC)c1OC,inconclusive: -55.9%
13,CC(=NCCN1CCOCC1)C1=C(O)c2ccccc2C1=O,inconclusive: -74.1%
14,Cc1ccc(NC(=O)CO/N=C/c2ccc(N(C)C)cc2)cc1,inconclusive: -35.5%
15,COc1ccc2c3c(cccc13)N(C)N=C2C,inactive: -29.2%
16,O=C(CSc1ccc(Cl)cc1)Nc1ccccc1Oc1ccccc1,inactive: 23.8%
17,COc1ccc(NC(=O)COC(=O)c2ccc(OCc3ccccc3Cl)c(OC)c2)c(OC)c1,inconclusive: -41.4%
18,COC(=O)c1sc2cc(C(F)(F)F)cnc2c1-c1ccccc1,inconclusive: -41.4%
19,COc1ccc(CCNC(=O)c2cc(-c3cc(C)c(C)cc3O)n[nH]2)cc1OC,inactive: -17.7%
20,CCCCOC(=O)Nc1cc(Cl)ccc1C,inconclusive: -46.8%
21,COc1cc2[nH]c(=S)n(NC(=O)c3ccccc3)c(=O)c2cc1OC,inconclusive: -48.8%
22,O=S(=O)(c1ccc(Cl)c(NC(=S)Nc2ccccc2N2CCOCC2)c1)N1CCOCC1,inconclusive: -70.9%
